Measurements from patent publication EP0164635A2, “Imidazothiazolemethylene-acetohydrazide derivatives, preparation thereof and pharmaceutical composition having diuretic activity” (MEDIOLANUM FARMACEUTICI s.r.l., priority 1984, dated 1985).

What was measured:
in vivo = conditions: rat, po
rat = assay: Excreted urinary electrolytes after oral administration, with a second water load after 0-3 h; format: in vivo; conditions: 10 mg/kg
Procedure: The compounds were administered by the oral route, under the same conditions as described in the previous test, but the animals, after the O-3 hours interval, were treated with further 25 ml/kg of distilled water, by intubation.

## NS(=O)(=O)c1cc(C(=O)O)c(NCc2ccco2)cc1Cl [Furosemide, furosemide, reference compound]
In vivo
  LD50: 2600 mg/kg
rat; 0-3 h
  EXCRETED URINARY ELECTROLYTES WITH RESPECT TO BODY WEIGHT, Cl^-: 1.59 mEq/kg
rat; 0-6 h
  EXCRETED URINARY ELECTROLYTES WITH RESPECT TO BODY WEIGHT, Cl^-: 1.59 mEq/kg
rat; 3-6 h
  EXCRETED URINARY ELECTROLYTES WITH RESPECT TO BODY WEIGHT, Cl^-: 0.0 mEq/kg
